For assay [1], the target named is COR47 (COLD-REGULATED 47), yeast two-hybrid fusion (Arabidopsis thaliana) (UniProt P31168). Description: two-hybrid; pairwise AD and BD co-transformed into yeast strain Y2H gold; growth on SD -Leu/-Trp/-His/-Ade at 30 °C for 48 h.
Assay [2] has as its target COR47 (COLD-REGULATED 47), BiFC fusion (Arabidopsis thaliana) (UniProt P31168). Description: split reporter; BiFC; transient expression in N. benthamiana leaves by agroinfiltration (A. tumefaciens GV3101).

Results are given in words; binding and its absence hold for the method and conditions named. For some assays here: In cells and extracts the contact can be indirect. Some results given as binding are weak or reduced against the parent protein; the word gives no strength. Sequences can lack the tags named with a protein.

B1: COR47 (COLD-REGULATED 47), yeast two-hybrid fusion (protein, UniProt P31168 1-265)
chain: MAEEYKNNVPEHETPTVATEESPATTTEVTDRGLFDFLGKKEEEVKPQETTTLESEFDHKAQISEPELAAEHEEVKENKITLLEELQEKTEEDEENKPSVIEKLHRSNSSSSSSSDEEGEEKKEKKKKIVEGEEDKKGLVEKIKEKLPGHHDKTAEDDVPVSTTIPVPVSESVVEHDHPEEEKKGLVEKIKEKLPGHHDEKAEDSPAVTSTPLVVTEHPVEPTTELPVEHPEEKKGILEKIKEKLPGYHAKTTEEEVKKEKESDD
Regarding B1, the binding entry in assay [1] is “binds”.

B2: COR47 (COLD-REGULATED 47), BiFC fusion (protein, UniProt P31168 1-265)
chain: B1 chain
B2: the binding entry in assay [2] is listed as “binds”.

Values taken from paper PMC12312434.
